Earlier results, collected in patent US20090281111A1 (Fabre-Kramer Pharmaceuticals, Inc., priority 2008, published 2009).

Settings: CYLERT one form; RITALIN and DEXEDRINE short-term tablets; cited from earlier work

| Compound | duration of effect (lasts) |
| --- | --- |
| C[C@H](N)Cc1ccccc1 [DEXEDRINE, dextroamphetamine] | about 3 hours |
| COC(=O)C(c1ccccc1)C1CCCCN1 (centres unmarked) [RITALIN, methylphenidate] | about 3 hours |
